Source: patent US11453640B2, “Small molecules for disrupting the super elongation complex and inhibiting transcription elongation for cancer therapy” (NORTHWESTERN UNIVERSITY, priority 2018, dated 2022)
At least one structure is not confirmed: it was looked up by name or label, or the drawing left a doubt.

Tested on: heat shock inducible genes in HCT-116 cells
Experiment: Heat shock induction in HCT-116 cells (Pol II ChIP-seq)
Type: cell-based, human
Conditions: 5 hr pretreatment, 42° C. 1 hr
Description: FIG. 5. SEC inhibitors block transcription elongation in SEC-dependent rapid response models. (A-B) Genome browser tracks of Pol II ChIP-seq at the FOS, HSPD1 and HSPE1 genes after 1 hr heat shock of HCT-116 cells treated with vehicle (DMSO) or the indicated SEC inhibitors. HCT-116 cells were pretreated with inhibitors for 5 hr at 37° C. before exchanging medium with conditioned 42° C. medium. Dark and light colors indicate the 37 and 42° C. conditions, respectively. (C) Genome-wide identification of heat shock-induced genes with fold change of reads per million in gene bodies and pausing index. Red dots are the 136 heat shock-induced genes according to Pol II signals (fold change of reads per million in gene bodies >1.5 and pausing index decreased >1.5-fold in the DMSO-treated condition). […] Box plot analysis depicts the log2 fold changes of reads per million in gene bodies (E) (y axis) after heat shock with pretreatment of vehicle or SEC inhibitors. […]
Chromatin Immunoprecipitation Sequencing. […] ChIP-seq reads were aligned to the Drosophila genome (UCSC dm3) or human genome (UCSC hgl9). Alignments were processed with Bowtie version 1.1.2, allowing only uniquely mapping reads with up to two mismatches within the 50 bp read. The resulting reads were extended to 150 bp toward the interior of the sequenced fragment and normalized to total reads aligned (reads per million, r.p.m.). […]

Cc1ccc(Cl)cc1NC(=O)C(=O)CC(=O)c1ccc(F)cc1 [KL-2, N-(5-chloro-2-methylphenyl)-4-oxo-(4-fluorophenyl)-2-oxobutanamide] was tested, and the “induction of heat shock inducible genes” value was “block induction of known heat shock inducible genes”.
